{
  "source": "patent US7015309B1",
  "about": "(The Wistar Institute of Anatomy and Biology, priority 1999, dated 2006)",
  "key": {"[1]": {"test_system": "Bacillus megaterium", "details": "read-out: IC50 in μM against Bacillus megaterium; 30° C., 24 hours; for Peptide 22 original assay (a)", "protocol": "Growth inhibition assays were performed using the peptides of Example 1 and the Gram positive microorganisms Micrococcus luteus and Bacillus megaterium, and the Gram negative microorganisms, Escherichia coli D22, Agrobacterium tumefaciens, and Salmonella typhimurium. Anti-bacterial assays were performed in sterilized 96-well plates (Nunc F96 microtiter plates) with a final volume of 100 μl as described in Bulet (1996), cited above. Briefly, 90 μl of a suspension of a midlogarithmic phase bacterial culture at an initial 600 nm UV absorbence of 0.001 in Luria-Bertani rich nutrient medium was added to 10 μl of serially diluted peptides in sterilized water. The final peptide concentrations ranged between 0.15 and 80 μM. The plates were incubated at 30° C. for 24 hours with gentle shaking, and the growth inhibition was measured by recording the increase of the UV absorbence at 600 nm on an SLT Labinstruments 400 ATC microplate reader. The experiments were conducted over a 7-month period."}, "[2]": {"test_system": "Escherichia coli strain (ATCC Accession No. 25922)", "experiment": "In vivo anti-bacterial assay, E. coli infected mice", "design": "species or system mice of CD-1 strain", "details": "booster after 5 hours"}},
  "note": "For some assays here: At least one peptide structure holds a part that was inferred or is arguable (an end, a ring closure or a residue). At least one structure is not confirmed: it was looked up by name or label, or the drawing left a doubt. Non-standard residues stand in square brackets, D forms with d. Residues, ends and D or L forms follow the SMILES beside them. No end group written: not given here. ξ: configuration not given here. *: point of attachment. X1 = CC(=O)N[C@H]1C(N*)O[C@H](CO)[C@@H](O)[C@@H]1O; Ac6c = NC1(C(=O)O)CCCCC1; ξDap = NCC(N)C(=O)O",
  "data": [
    {"molecule": "CC[C@H](C)[C@H](NC(=O)[C@@H]1CCCN1C(=O)[C@H](CCCNC(=N)N)NC(=O)[C@@H]1CCCN1C(=O)[C@@H]1CCCN1C(=O)[C@@H](NC(=O)[C@@H]1CCCN1C(=O)[C@H](CCCNC(=N)N)NC(=O)[C@@H]1CCCN1C(=O)[C@H](CC(C)C)NC(=O)[C@H](Cc1ccc(O)cc1)NC(=O)[C@H](CO)NC(=O)CNC(=O)[C@H](CCCCN)NC(=O)[C@H](CC(=O)O)NC(=O)[C@@H](NC(=O)[C@H](CCCCN)NC(C)=O)C(C)C)[C@@H](C)O)C(=O)N[C@@H](Cc1ccc(O)cc1)C(=O)N[C@@H](CC(N)=O)C(=O)N[C@@H](CCCNC(=N)N)C(=O)N[C@@H](CC(=O)NC1O[C@H](CO)[C@@H](O)[C@H](O)[C@H]1NC(C)=O)C(N)=O", "note": "(some centres unmarked) [Peptide 10] (Ac-KVDKGSYLPRPTPPRPIYNRD(X1)-NH2)", "values": [
      {"measurement": "IC50", "setting": "[1]", "value": "> 80", "unit": "µM"}
    ]},
    {"molecule": "CC[C@H](C)[C@H](NC(=O)[C@@H]1CCCN1C(=O)[C@H](CCCNC(=N)N)NC(=O)[C@@H]1CCCN1C(=O)[C@@H]1CCCN1C(=O)[C@@H](NC(=O)[C@@H]1CCCN1C(=O)[C@H](CCCNC(=N)N)NC(=O)[C@@H]1CCCN1C(=O)[C@H](CC(C)C)NC(=O)[C@H](Cc1ccc(O)cc1)NC(=O)[C@H](CO)NC(=O)CNC(=O)[C@H](CCCCN)NC(=O)[C@H](CC(=O)O)NC(=O)C1(N)CCCCC1)[C@@H](C)O)C(=O)N[C@@H](Cc1ccc(O)cc1)C(=O)N[C@@H](CC(N)=O)C(=O)N[C@@H](CCCNC(=N)N)C(=O)NC(CNC(C)=O)C(N)=O", "note": "(stereo partly drawn) [Peptide 21, 1-aminocyclo-hexane carboxylic acid (Chex)-Pyrrhocoricin-β-acetyl-2,3-diamino propionic amide [Dap(Ac)]] (H-[Ac6c]DKGSYLPRPTPPRPIYNR[ξDap](Ac)-NH2)", "values": [
      {"measurement": "protection of infected mice (in words)", "setting": "[2]; 10, 25 and 50 mg/kg intravenous 1 hour after infection", "value": "protected all 15 mice"}
    ]},
    {"molecule": "VDKGSYLPRPTPPRPIYNRN-NH2 [Peptide 1]", "values": [
      {"measurement": "survival / clinical signs of infected mice (in words)", "setting": "[2]; 50 mg/kg intravenous 1 hour after infection", "value": "one mouse died and the other 4 showed clinical signs of disease"},
      {"measurement": "survival / clinical signs of infected mice (in words)", "setting": "[2]; 50 mg/kg intravenous 1 hour after infection, listed as de-glycosylated pyrrhocoricin", "value": "enhances the infection"},
      {"measurement": "survival / clinical signs of infected mice (in words)", "setting": "[2]; 10 and 25 mg/kg intravenous 1 hour after infection", "value": "survived without any clinical signs of disease"}
    ]}
  ]
}
